# In PubChem BioAssay AID743266 (National Center for Advancing Translational Sciences (NCATS), 2014):
# Chains of the proteins cited; added tags and fusions are not shown. Lines headed by an entry give the natural chain unless they say otherwise; changes in a name come on top.
# UniProt Q03431: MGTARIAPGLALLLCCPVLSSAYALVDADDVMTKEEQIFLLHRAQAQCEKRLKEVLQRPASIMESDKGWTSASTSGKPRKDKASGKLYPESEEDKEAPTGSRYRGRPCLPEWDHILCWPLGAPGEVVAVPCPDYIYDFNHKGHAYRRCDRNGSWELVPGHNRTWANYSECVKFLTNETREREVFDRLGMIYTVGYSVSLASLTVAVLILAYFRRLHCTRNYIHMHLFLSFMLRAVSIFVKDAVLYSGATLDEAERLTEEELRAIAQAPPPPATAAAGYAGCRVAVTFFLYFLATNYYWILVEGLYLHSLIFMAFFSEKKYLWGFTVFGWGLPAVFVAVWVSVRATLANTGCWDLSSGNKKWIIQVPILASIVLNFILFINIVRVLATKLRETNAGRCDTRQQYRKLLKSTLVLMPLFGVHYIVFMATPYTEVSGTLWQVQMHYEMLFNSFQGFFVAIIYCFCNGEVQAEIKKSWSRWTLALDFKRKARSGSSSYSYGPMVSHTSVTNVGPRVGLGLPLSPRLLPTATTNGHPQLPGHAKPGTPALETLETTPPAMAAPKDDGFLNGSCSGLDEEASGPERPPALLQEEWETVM
# About 310 (0.076%) of roughly 410,000 compounds were called active. This list was built around the results that the source calls inconclusive (neither active nor inactive); the mix of calls is not that of the screen. The call rests on the fitted dose curve; in most records, active means well fitted activation curve with a large enough effect; inconclusive means small, poorly fitted or top-dose-only effect, or another doubt; inactive means no such curve, though single readings can be large or run the other way. Where the call is inconclusive, the potency comes from a doubtful curve fit.
# Molecular target: Parathyroid hormone/parathyroid hormone-related peptide receptor (Homo sapiens) (UniProt Q03431)
# Test: qHTS for PTHR1 Agonists: Primary Screen; further: nearly all actives have a fitted effect of over 55% in size
# Conditions: HEK293 GP2 PTHR1 cells, GloSensor cAMP luminescence, 1 h; activation: at 115 µM (top of the series) unless noted; series mostly up to 115 µM
# How it was run: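 HEK-293-derived GP2 cells expressing PTHR1 and a GloSensor cAMP reporter, 3,000/well, plated overnight, given luciferin plus IBMX (each 0.5 mM as added) for 1 h at 37 °C, then compound for 1 h at 37 °C. Luminescence was read after 15 min at room temperature.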
# Potency means the concentration at half of the fitted maximal effect.
Structure (SMILES),activation,Potency
COc1ccc(CCNC(=O)C(CC(C)C)NC(N)=O)cc1 (stereo unspecified),inconclusive: 49.7% [activator],–
CC(NC(=O)C1CCCN1S(=O)(=O)c1cccc2nsnc12)c1ccccc1 (stereo unspecified),inconclusive: 61.9% [activator],–
CC(C)CNC(=O)c1[nH]c(C(F)(F)F)nc1-c1ccccc1,–,inactive
COC(=O)c1sccc1NC(=O)/C=C/C(=O)O,inconclusive: 31.8% [activator],–
NC(=O)CCC(NC(=S)Nc1ccccc1)C(=O)O (stereo unspecified),–,"inconclusive: 126 µM [activator, single point]"
Cc1ccc(-c2nc3n(n2)C(c2ccccc2Cl)C=C(c2ccc(Cl)cc2)N3)cc1 (stereo unspecified),–,"inconclusive: 112 µM [activator, partial curve, poor fit]"
N#Cc1c[nH]n2c(NC3CCCC3)c(-c3cccc(Br)c3)nc12,–,inactive
CC(C)Oc1ccc(CNC(=O)Cn2nc(N3CCN(c4ccccc4)CC3)ccc2=O)cc1,–,inactive
CCOc1ccc(-c2nc(SCC(=O)Nc3cc(F)ccc3F)n3[nH]c(=O)cc3n2)cc1,–,"inconclusive: 141 µM [activator, single point]"
CCN(CC)S(=O)(=O)c1ccc(-c2nnc(SCC(=O)Nc3nnc(C)s3)n2CC)cc1,–,"inconclusive: 2.82 µM [activator, partial curve, poor fit]"
CCCn1nnc(NC(=O)c2ccc(OCC)c(Cl)c2)n1,–,"inconclusive: 2.82 µM [activator, full curve, poor fit]"
O=C(O)c1n[nH]c2c1CC(C1CCCCC1)CC2 (stereo unspecified),–,"inconclusive: 100 µM [activator, single point]"
Cc1ccc(C(=O)NCc2ccco2)cc1Br,–,"inconclusive: 39.8 µM [activator, single point]"
Cn1c(CNC2CCCCC2)c(C#N)c2ccccc21,–,inactive
CSc1ccccc1NC(=O)CN(C)Cc1cccc(Cl)c1,–,"inconclusive: 22.4 µM [activator, partial curve, poor fit]"
Cc1ccc(NC(=O)COc2ccc3oc4c(c3c2)CCCC4)cc1C,–,inactive
COc1ccc(C(=O)CSc2cc(C)[nH]c(=O)n2)cc1,–,inactive
COc1cccc(NC(=S)N2CCN(C(c3ccccc3)c3ccccc3)CC2)c1,–,inactive
CC1=NN(c2ccc(Cl)cc2)C(=O)C1,inconclusive: -21.5% [activator],–
COc1cccc(NC(=O)Cn2c(=O)n(-c3ccccc3)c(=O)c3c2c2cc(OC)ccc2n3C)c1,–,"inconclusive: 50.1 µM [activator, partial curve]"
O=C(O)c1ccc(CNC(=O)c2ccccc2NC(=O)c2cccc([N+](=O)[O-])c2)cc1,–,"inconclusive: 56.2 µM [activator, partial curve, poor fit]"
CCN(CC)CCNC(=O)c1ccc(NC(=O)c2ccc(F)cc2)cc1,–,inactive
CNc1nc(C)c(C(=O)OCc2ccccc2)s1,–,"inconclusive: 50.1 µM [activator, single point]"

Structure (SMILES),activation,Potency
CCOc1ccc(CCNC(=O)CN2CCN(Cc3ccccc3F)C2=O)cc1OCC,inconclusive: 33.1% [activator],–
CNCCCNC(=O)c1ccc(/C=N/O)nc1,–,"inconclusive: 100 µM [activator, partial curve, poor fit]"
CCC(CC)n1[nH]c(=O)cc1N,–,"inconclusive: 15.8 µM [activator, partial curve]"
O=c1c2c(-c3cccs3)csc2ncn1/N=C/c1ccc(OC(F)F)cc1,–,"inconclusive: 63.1 µM [activator, single point]"
Cc1cc(=O)oc2cc(OCC(=O)OCC(=O)Nc3ccccc3F)ccc12,–,"inconclusive: 141 µM [activator, single point]"
Cc1cc(O)c(-c2cc(C(=O)NCc3ccc4c(c3)OCO4)[nH]n2)cc1C,–,"inconclusive: 39.8 µM [activator, single point]"
CCCCCCN1C2=NCCN2c2ccccc21,–,inactive
CCOC(=O)C1(S(=O)(=O)c2ccc(Cl)cc2)CCN(Cc2ccc(C)cc2)CC1,–,"inconclusive: 2.82 µM [activator, partial curve]"
CC(=O)NC(Cc1ccccc1F)C(=O)NC1CCN(C(=O)NCc2ccccc2)CC1 (stereo unspecified),–,"inconclusive: 89.1 µM [activator, partial curve, poor fit]"
O=C(NCc1ccccc1F)Nc1nnc([C@H]2C[C@H](O)[C@@H](CO)O2)s1,–,"inconclusive: 2 µM [activator, full curve, poor fit]"
O=C(CNCc1ccccc1Cl)Nc1ccc(C(=O)N2CCCCC2)cc1,–,inactive
COC(=O)C1(Cc2cc(-c3cccc(Br)c3)no2)CCN(C(=O)OC(C)(C)C)CC1,–,inactive
C=Cc1ccc(Cn2c(SCC(=O)N3CCN(c4ccc(F)cc4)CC3)nc3ccccc32)cc1,–,inactive
O=C1CCC(c2ccc3c(c2)CCC3)=NN1,inconclusive: 62% [activator],–
Cc1ccc(S(=O)(=O)CCc2nnc(NC(=O)CCl)s2)cc1C,–,inactive
COc1cc(C2Nc3cc(C)c(C)cc3NC3=C2C(=O)CC(C)(C)C3)ccc1OC(C)=O (stereo unspecified),–,"inconclusive: 11.2 µM [activator, full curve, poor fit]"
Cc1cc(C)nc(NC(=O)c2cc(-c3ccc4c(c3)OCO4)nc3ccccc23)c1,–,"inconclusive: 28.2 µM [activator, single point]"
COc1ccc(NC(=O)c2cc3c(C)nn(-c4ccccc4)c3s2)c(OC)c1,inconclusive: -16.7% [activator],–
CC(C)c1ccc(NC(=O)Cn2c(=O)oc3ccccc32)cc1,–,inactive
CCOC(=O)C1CCCN(C(=O)CSc2nccn2C)C1 (stereo unspecified),–,"inconclusive: 35.5 µM [activator, single point]"
Cc1ccc(Cn2c(CCNC(=O)C(C)C)nc3ccccc32)cc1,–,inactive
O=C(Cc1ccccc1)NCC(=O)OCC(=O)c1ccc(OC(=O)c2ccccc2)cc1,–,"inconclusive: 35.5 µM [activator, single point]"
COCC(=O)Nc1ccc(N2CCOCC2)c(S(=O)(=O)Nc2ccccc2OC)c1,inconclusive: -60.9% [activator],–

# Laid out differently: entries from further up.
Structure (SMILES)	activation	Potency
Cc1cc(C)nc(NC(=O)c2cc(-c3ccc4c(c3)OCO4)nc3ccccc23)c1	–	inconclusive: 28.2 µM [activator, single point]
COc1ccc(NC(=O)c2cc3c(C)nn(-c4ccccc4)c3s2)c(OC)c1	inconclusive: -16.7% [activator]	–
CC(C)c1ccc(NC(=O)Cn2c(=O)oc3ccccc32)cc1	–	inactive
